Assay results taken from article PMC9886552.
These are yes or no findings as the source states them, for the method shown. In cells and extracts the contact can be indirect. These calls come from enrichment with a bait or labelling near it, and not all partners need be listed. For part of these data: No binding means not detected with the bait. Sequences can lack the tags named with a protein.

Sequences of proteins named here, by UniProt entry; tags and fusion partners are left off. Residues count along the entry.
UniProt P00367, residues 54-558: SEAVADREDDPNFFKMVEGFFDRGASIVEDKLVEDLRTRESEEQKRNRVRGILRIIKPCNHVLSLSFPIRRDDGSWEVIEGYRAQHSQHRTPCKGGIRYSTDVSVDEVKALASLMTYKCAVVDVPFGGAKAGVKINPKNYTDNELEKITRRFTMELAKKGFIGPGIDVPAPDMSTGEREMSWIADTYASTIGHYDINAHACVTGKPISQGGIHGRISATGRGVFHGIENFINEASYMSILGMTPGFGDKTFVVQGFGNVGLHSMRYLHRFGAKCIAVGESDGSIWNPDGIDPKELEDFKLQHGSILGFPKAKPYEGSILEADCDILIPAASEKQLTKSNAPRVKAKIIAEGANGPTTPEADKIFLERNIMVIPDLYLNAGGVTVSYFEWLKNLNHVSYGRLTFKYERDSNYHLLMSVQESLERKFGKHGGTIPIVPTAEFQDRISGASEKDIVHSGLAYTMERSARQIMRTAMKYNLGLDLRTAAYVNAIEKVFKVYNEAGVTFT

T1: C-terminally FLAG-tagged MCEE (UniProt Q96PE7)
T1 sequence: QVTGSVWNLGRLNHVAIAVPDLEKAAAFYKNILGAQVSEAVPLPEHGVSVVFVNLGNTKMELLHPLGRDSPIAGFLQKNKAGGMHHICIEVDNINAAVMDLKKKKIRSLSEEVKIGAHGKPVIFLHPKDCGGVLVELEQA

T2: C-terminally FLAG-tagged MMAB (UniProt Q96EY8)
T2 sequence: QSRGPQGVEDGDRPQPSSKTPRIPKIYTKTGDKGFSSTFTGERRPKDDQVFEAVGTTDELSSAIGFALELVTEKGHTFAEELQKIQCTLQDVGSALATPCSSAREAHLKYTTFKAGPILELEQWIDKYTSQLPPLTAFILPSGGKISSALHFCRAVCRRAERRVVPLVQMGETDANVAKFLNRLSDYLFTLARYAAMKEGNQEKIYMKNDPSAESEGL

T3: C-terminally FLAG-tagged VLCAD (UniProt P49748)
T3 sequence: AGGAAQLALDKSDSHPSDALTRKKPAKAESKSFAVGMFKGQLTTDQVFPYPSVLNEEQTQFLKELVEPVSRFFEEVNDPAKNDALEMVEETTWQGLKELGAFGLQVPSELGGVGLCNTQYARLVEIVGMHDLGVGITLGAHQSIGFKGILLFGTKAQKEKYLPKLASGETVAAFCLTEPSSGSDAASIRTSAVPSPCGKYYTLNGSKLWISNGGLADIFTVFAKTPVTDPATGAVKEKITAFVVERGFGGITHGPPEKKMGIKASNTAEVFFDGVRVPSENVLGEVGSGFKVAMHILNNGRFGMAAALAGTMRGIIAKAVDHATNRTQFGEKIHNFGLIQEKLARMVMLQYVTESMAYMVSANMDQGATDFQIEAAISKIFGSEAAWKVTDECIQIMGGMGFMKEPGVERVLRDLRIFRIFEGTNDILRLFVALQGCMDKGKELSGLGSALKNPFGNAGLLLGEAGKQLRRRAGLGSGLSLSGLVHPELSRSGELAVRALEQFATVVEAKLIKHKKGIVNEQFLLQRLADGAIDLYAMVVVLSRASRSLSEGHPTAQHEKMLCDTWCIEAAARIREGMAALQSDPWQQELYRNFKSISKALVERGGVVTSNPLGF

T4: C-terminally FLAG-tagged methylmalonyl-CoA mutase (MMUT) (UniProt P22033)
T4 sequence: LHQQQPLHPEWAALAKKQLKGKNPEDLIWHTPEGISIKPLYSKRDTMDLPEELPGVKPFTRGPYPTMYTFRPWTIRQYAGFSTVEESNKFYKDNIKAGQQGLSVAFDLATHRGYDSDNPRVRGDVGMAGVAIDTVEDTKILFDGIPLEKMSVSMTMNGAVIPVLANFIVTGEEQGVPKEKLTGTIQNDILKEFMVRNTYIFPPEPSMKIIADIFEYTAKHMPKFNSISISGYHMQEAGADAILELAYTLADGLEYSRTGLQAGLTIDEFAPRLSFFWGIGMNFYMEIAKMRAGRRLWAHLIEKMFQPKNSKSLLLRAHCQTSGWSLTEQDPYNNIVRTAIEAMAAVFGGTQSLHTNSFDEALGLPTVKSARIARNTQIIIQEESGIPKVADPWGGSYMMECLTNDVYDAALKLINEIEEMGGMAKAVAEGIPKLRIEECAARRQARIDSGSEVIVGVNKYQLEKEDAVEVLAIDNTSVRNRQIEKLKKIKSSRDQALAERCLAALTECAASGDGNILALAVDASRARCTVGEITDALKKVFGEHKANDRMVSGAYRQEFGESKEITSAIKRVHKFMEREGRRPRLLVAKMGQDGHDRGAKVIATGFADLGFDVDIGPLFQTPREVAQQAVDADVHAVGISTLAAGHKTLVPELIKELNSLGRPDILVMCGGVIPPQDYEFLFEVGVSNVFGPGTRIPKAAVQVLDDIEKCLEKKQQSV

T5: C-terminally FLAG-tagged MMAA (UniProt Q8IVH4)
T5 sequence: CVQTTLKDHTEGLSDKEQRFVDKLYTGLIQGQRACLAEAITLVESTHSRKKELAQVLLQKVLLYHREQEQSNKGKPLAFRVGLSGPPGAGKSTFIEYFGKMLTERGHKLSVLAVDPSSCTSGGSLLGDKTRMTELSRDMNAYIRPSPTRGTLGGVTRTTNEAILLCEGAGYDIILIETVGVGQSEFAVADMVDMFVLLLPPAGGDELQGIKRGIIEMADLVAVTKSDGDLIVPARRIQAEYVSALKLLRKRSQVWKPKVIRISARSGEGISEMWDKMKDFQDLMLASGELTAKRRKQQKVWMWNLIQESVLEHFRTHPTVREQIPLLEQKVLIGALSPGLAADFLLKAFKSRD


Experiments:
Assay in all cases: affinity purification with mass spectrometry; cross-linking (0.5% PFA) anti-FLAG IP from transfected 293T cells, on-bead trypsin release, Q-Exactive MS; 1.0% FDR, two peptides minimum at 95% threshold; three biological replicates; controls EV and VLCAD
[1] = biological target: T1, C-terminally FLAG-tagged MCEE
[2] = biological target: T2, C-terminally FLAG-tagged MMAB
[3] = biological target: T3, C-terminally FLAG-tagged VLCAD
[4] = biological target: T4, C-terminally FLAG-tagged methylmalonyl-CoA mutase (MMUT)
[5] = biological target: T5, C-terminally FLAG-tagged MMAA

Row | binding [1] | binding [2] | binding [3] | binding [4] | binding [5] | Molecule
1 | binds | binds | no binding | binds | – | GLUD1 (glutamate dehydrogenase) (from UniProt P00367 54-558)
2 | binds | – | no binding | binds | – | endogenous MMAB (protein, UniProt Q96EY8 33-250) QSRGPQGVEDGDRPQPSSKTPRIPKIYTKTGDKGFSSTFTGERRPKDDQVFEAVGTTDELSSAIGFALELVTEKGHTFAEELQKIQCTLQDVGSALATPCSSAREAHLKYTTFKAGPILELEQWIDKYTSQLPPLTAFILPSGGKISSALHFCRAVCRRAERRVVPLVQMGETDANVAKFLNRLSDYLFTLARYAAMKEGNQEKIYMKNDPSAESEGL
3 | binds | binds | no binding | – | – | endogenous methylmalonyl-CoA mutase (MMUT) (protein, UniProt P22033 33-750) LHQQQPLHPEWAALAKKQLKGKNPEDLIWHTPEGISIKPLYSKRDTMDLPEELPGVKPFTRGPYPTMYTFRPWTIRQYAGFSTVEESNKFYKDNIKAGQQGLSVAFDLATHRGYDSDNPRVRGDVGMAGVAIDTVEDTKILFDGIPLEKMSVSMTMNGAVIPVLANFIVTGEEQGVPKEKLTGTIQNDILKEFMVRNTYIFPPEPSMKIIADIFEYTAKHMPKFNSISISGYHMQEAGADAILELAYTLADGLEYSRTGLQAGLTIDEFAPRLSFFWGIGMNFYMEIAKMRAGRRLWAHLIEKMFQPKNSKSLLLRAHCQTSGWSLTEQDPYNNIVRTAIEAMAAVFGGTQSLHTNSFDEALGLPTVKSARIARNTQIIIQEESGIPKVADPWGGSYMMECLTNDVYDAALKLINEIEEMGGMAKAVAEGIPKLRIEECAARRQARIDSGSEVIVGVNKYQLEKEDAVEVLAIDNTSVRNRQIEKLKKIKSSRDQALAERCLAALTECAASGDGNILALAVDASRARCTVGEITDALKKVFGEHKANDRMVSGAYRQEFGESKEITSAIKRVHKFMEREGRRPRLLVAKMGQDGHDRGAKVIATGFADLGFDVDIGPLFQTPREVAQQAVDADVHAVGISTLAAGHKTLVPELIKELNSLGRPDILVMCGGVIPPQDYEFLFEVGVSNVFGPGTRIPKAAVQVLDDIEKCLEKKQQSV
4 | binds | binds | no binding | binds | binds | GOT2 (protein, UniProt P00505 30-430) SSWWTHVEMGPPDPILGVTEAFKRDTNSKKMNLGVGAYRDDNGKPYVLPSVRKAEAQIAAKNLDKEYLPIGGLAEFCKASAELALGENSEVLKSGRFVTVQTISGTGALRIGASFLQRFFKFSRDVFLPKPTWGNHTPIFRDAGMQLQGYRYYDPKTCGFDFTGAVEDISKIPEQSVLLLHACAHNPTGVDPRPEQWKEIATVVKKRNLFAFFDMAYQGFASGDGDKDAWAVRHFIEQGINVCLCQSYAKNMGLYGERVGAFTMVCKDADEAKRVESQLKILIRPMYSNPPLNGARIAAAILNTPDLRKQWLQEVKVMADRIIGMRTQLVSNLKKEGSTHNWQHITDQIGMFCFTGLKPEQVERLIKEFSIYMTKDGRISVAGVTSSNVGYLAHAIHQVTK
